No constants are given. Whether binding was seen depends on the method and setting.
Tests used:
Experiment in all cases: SEC; Superdex200 column; 50 mM Tris, 150 mM NaCl, 0.5 mM TCEP, pH 7.5; both purified
[1] = molecular target: T1, full-length Sirt2 (aa1-389, Sirt2-FL) (human), Q8IXJ6; conditions: remark: other sources report otherwise
T1 chain: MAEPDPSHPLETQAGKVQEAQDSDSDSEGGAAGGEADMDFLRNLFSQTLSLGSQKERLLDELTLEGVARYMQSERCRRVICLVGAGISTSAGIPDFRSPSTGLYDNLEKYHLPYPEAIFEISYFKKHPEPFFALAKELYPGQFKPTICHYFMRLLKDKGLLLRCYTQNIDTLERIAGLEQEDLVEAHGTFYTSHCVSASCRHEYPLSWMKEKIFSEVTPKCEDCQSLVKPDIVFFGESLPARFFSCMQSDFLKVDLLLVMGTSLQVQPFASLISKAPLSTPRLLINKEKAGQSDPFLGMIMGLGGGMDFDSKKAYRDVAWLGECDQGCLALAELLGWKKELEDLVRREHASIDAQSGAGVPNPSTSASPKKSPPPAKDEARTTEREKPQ

[2] = molecular target: Sirt2 core construct, aa56 to 356 (Sirt2 ΔCN) (human) (UniProt Q8IXJ6)
[3] = molecular target: T2, Sirt2 aa1-356 (Sirt2 ΔC) (human), Q8IXJ6; conditions: remark: other sources report otherwise
T2 chain: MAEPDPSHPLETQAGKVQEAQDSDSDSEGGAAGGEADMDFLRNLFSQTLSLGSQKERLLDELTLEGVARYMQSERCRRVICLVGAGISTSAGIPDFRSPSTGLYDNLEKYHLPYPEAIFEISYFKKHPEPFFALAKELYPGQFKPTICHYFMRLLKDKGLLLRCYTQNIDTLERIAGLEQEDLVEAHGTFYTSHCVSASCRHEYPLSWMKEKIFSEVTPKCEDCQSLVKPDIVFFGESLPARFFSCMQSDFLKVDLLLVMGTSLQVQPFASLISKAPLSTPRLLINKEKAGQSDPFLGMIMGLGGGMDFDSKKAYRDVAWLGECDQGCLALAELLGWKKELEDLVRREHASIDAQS

[4] = molecular target: Sirt2 aa56 to 389 (Sirt2 ΔN2) (human) (UniProt Q8IXJ6)
[5] = molecular target: T3, Sirt2 isoform 2 splice variant aa38 to 389 (Sirt2 ΔN1) (human), Q8IXJ6; conditions: remark: other sources report otherwise
T3 chain: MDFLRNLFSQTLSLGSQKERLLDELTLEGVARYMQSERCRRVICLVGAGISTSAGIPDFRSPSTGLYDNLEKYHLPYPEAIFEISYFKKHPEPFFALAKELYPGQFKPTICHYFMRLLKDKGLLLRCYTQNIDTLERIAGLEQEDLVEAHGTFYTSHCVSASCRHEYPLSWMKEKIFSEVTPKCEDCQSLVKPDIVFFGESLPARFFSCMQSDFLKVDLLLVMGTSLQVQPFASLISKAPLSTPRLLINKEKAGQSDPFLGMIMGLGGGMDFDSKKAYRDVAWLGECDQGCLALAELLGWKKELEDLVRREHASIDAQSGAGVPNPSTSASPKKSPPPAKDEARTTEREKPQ

B1: full-length Sirt2 (aa1-389, Sirt2-FL), Q8IXJ6 1-389 (enzyme)
chain: MAEPDPSHPLETQAGKVQEAQDSDSDSEGGAAGGEADMDFLRNLFSQTLSLGSQKERLLDELTLEGVARYMQSERCRRVICLVGAGISTSAGIPDFRSPSTGLYDNLEKYHLPYPEAIFEISYFKKHPEPFFALAKELYPGQFKPTICHYFMRLLKDKGLLLRCYTQNIDTLERIAGLEQEDLVEAHGTFYTSHCVSASCRHEYPLSWMKEKIFSEVTPKCEDCQSLVKPDIVFFGESLPARFFSCMQSDFLKVDLLLVMGTSLQVQPFASLISKAPLSTPRLLINKEKAGQSDPFLGMIMGLGGGMDFDSKKAYRDVAWLGECDQGCLALAELLGWKKELEDLVRREHASIDAQSGAGVPNPSTSASPKKSPPPAKDEARTTEREKPQ
- binding [1]: no binding

B2: Sirt2 core construct, aa56 to 356 (Sirt2 ΔCN) (domain or fragment, UniProt Q8IXJ6 56-356)
chain: ERLLDELTLEGVARYMQSERCRRVICLVGAGISTSAGIPDFRSPSTGLYDNLEKYHLPYPEAIFEISYFKKHPEPFFALAKELYPGQFKPTICHYFMRLLKDKGLLLRCYTQNIDTLERIAGLEQEDLVEAHGTFYTSHCVSASCRHEYPLSWMKEKIFSEVTPKCEDCQSLVKPDIVFFGESLPARFFSCMQSDFLKVDLLLVMGTSLQVQPFASLISKAPLSTPRLLINKEKAGQSDPFLGMIMGLGGGMDFDSKKAYRDVAWLGECDQGCLALAELLGWKKELEDLVRREHASIDAQS
- binding [2]: no binding

B3: Sirt2 aa1-356 (Sirt2 ΔC), Q8IXJ6 1-356 (domain or fragment)
chain: MAEPDPSHPLETQAGKVQEAQDSDSDSEGGAAGGEADMDFLRNLFSQTLSLGSQKERLLDELTLEGVARYMQSERCRRVICLVGAGISTSAGIPDFRSPSTGLYDNLEKYHLPYPEAIFEISYFKKHPEPFFALAKELYPGQFKPTICHYFMRLLKDKGLLLRCYTQNIDTLERIAGLEQEDLVEAHGTFYTSHCVSASCRHEYPLSWMKEKIFSEVTPKCEDCQSLVKPDIVFFGESLPARFFSCMQSDFLKVDLLLVMGTSLQVQPFASLISKAPLSTPRLLINKEKAGQSDPFLGMIMGLGGGMDFDSKKAYRDVAWLGECDQGCLALAELLGWKKELEDLVRREHASIDAQS
- binding [3]: no binding

B4: Sirt2 aa56 to 389 (Sirt2 ΔN2) (domain or fragment, UniProt Q8IXJ6 56-389)
chain: ERLLDELTLEGVARYMQSERCRRVICLVGAGISTSAGIPDFRSPSTGLYDNLEKYHLPYPEAIFEISYFKKHPEPFFALAKELYPGQFKPTICHYFMRLLKDKGLLLRCYTQNIDTLERIAGLEQEDLVEAHGTFYTSHCVSASCRHEYPLSWMKEKIFSEVTPKCEDCQSLVKPDIVFFGESLPARFFSCMQSDFLKVDLLLVMGTSLQVQPFASLISKAPLSTPRLLINKEKAGQSDPFLGMIMGLGGGMDFDSKKAYRDVAWLGECDQGCLALAELLGWKKELEDLVRREHASIDAQSGAGVPNPSTSASPKKSPPPAKDEARTTEREKPQ
- binding [4]: no binding

B5: Sirt2 isoform 2 splice variant aa38 to 389 (Sirt2 ΔN1), Q8IXJ6 38-389 (domain or fragment)
chain: MDFLRNLFSQTLSLGSQKERLLDELTLEGVARYMQSERCRRVICLVGAGISTSAGIPDFRSPSTGLYDNLEKYHLPYPEAIFEISYFKKHPEPFFALAKELYPGQFKPTICHYFMRLLKDKGLLLRCYTQNIDTLERIAGLEQEDLVEAHGTFYTSHCVSASCRHEYPLSWMKEKIFSEVTPKCEDCQSLVKPDIVFFGESLPARFFSCMQSDFLKVDLLLVMGTSLQVQPFASLISKAPLSTPRLLINKEKAGQSDPFLGMIMGLGGGMDFDSKKAYRDVAWLGECDQGCLALAELLGWKKELEDLVRREHASIDAQSGAGVPNPSTSASPKKSPPPAKDEARTTEREKPQ
- binding [5]: no binding
